Reference: paper PMC7790756

Amino acid sequences for entries named in this document (tags omitted).
UniProt Q12923: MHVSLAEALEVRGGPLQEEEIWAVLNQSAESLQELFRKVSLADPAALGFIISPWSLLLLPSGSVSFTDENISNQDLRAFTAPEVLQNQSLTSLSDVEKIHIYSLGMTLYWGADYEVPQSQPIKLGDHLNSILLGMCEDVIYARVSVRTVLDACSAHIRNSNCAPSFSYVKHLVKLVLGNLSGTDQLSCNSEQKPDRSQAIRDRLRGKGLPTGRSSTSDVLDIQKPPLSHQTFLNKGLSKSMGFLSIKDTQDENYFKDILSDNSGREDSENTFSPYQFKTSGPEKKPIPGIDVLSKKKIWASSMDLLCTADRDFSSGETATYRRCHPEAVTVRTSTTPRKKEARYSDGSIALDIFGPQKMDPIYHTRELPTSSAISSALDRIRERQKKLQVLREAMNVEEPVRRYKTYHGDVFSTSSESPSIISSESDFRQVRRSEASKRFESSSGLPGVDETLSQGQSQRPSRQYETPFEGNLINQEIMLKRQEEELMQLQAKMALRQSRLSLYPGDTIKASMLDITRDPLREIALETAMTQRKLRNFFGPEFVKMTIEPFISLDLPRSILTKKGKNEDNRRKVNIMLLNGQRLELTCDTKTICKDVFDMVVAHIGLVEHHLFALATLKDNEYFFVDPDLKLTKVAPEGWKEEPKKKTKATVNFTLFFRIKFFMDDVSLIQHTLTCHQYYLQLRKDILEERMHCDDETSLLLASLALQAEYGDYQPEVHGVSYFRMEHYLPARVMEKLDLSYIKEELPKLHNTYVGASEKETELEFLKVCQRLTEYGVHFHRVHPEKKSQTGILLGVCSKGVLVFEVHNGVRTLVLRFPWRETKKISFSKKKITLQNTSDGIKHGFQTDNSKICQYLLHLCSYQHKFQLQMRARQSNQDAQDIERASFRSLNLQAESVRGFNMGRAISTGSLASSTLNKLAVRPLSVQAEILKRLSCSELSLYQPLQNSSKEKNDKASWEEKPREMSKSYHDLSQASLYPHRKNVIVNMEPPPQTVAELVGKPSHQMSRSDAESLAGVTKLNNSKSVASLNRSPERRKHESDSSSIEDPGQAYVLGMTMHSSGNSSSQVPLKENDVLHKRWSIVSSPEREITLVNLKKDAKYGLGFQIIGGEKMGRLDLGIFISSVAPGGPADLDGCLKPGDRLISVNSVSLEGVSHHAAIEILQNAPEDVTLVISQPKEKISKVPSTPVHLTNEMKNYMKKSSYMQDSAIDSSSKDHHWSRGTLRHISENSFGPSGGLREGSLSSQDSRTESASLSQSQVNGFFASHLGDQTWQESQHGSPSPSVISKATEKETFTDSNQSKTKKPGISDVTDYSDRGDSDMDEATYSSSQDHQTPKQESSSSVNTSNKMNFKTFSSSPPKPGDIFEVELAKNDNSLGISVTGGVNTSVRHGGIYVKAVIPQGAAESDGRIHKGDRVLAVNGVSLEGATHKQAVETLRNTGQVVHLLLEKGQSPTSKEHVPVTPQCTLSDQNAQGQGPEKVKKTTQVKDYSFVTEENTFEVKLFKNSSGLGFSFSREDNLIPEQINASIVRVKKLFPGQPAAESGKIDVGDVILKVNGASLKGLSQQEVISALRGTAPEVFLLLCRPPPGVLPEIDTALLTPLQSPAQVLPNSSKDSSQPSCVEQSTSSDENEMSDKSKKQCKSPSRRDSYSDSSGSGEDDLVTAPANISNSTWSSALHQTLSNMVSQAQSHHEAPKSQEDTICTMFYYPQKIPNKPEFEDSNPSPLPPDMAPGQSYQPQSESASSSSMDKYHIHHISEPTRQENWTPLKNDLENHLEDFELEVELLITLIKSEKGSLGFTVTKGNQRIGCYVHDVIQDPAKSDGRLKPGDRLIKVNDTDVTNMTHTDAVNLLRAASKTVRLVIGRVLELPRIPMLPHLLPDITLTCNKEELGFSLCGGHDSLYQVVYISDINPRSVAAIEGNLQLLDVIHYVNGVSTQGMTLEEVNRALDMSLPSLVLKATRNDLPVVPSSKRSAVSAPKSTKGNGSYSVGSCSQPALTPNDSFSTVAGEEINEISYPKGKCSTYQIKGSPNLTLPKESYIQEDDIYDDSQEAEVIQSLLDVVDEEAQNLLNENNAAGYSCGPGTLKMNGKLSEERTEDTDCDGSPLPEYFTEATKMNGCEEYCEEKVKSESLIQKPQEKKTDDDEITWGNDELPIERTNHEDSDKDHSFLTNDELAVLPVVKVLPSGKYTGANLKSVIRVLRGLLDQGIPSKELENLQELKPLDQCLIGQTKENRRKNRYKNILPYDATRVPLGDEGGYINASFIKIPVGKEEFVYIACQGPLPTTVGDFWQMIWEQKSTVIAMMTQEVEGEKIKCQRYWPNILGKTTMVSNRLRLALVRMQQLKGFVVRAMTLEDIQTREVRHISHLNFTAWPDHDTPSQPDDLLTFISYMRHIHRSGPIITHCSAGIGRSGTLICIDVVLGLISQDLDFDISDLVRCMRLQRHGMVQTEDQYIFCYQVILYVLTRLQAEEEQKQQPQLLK
UniProt O00425: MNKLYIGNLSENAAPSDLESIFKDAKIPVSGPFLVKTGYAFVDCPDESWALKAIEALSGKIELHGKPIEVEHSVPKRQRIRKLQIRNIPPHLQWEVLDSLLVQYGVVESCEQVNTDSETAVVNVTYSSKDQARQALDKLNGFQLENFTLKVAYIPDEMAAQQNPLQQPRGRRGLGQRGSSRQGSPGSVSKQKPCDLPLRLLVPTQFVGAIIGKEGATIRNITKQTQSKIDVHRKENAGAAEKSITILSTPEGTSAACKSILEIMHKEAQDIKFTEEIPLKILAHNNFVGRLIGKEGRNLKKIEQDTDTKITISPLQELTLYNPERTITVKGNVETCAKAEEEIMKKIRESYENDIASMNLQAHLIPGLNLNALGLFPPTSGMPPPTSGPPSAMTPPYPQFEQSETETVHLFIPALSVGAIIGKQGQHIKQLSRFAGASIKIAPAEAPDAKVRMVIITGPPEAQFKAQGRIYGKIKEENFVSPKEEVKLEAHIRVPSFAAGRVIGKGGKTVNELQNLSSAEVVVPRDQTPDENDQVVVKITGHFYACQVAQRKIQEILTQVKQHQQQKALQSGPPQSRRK
UniProt P14618: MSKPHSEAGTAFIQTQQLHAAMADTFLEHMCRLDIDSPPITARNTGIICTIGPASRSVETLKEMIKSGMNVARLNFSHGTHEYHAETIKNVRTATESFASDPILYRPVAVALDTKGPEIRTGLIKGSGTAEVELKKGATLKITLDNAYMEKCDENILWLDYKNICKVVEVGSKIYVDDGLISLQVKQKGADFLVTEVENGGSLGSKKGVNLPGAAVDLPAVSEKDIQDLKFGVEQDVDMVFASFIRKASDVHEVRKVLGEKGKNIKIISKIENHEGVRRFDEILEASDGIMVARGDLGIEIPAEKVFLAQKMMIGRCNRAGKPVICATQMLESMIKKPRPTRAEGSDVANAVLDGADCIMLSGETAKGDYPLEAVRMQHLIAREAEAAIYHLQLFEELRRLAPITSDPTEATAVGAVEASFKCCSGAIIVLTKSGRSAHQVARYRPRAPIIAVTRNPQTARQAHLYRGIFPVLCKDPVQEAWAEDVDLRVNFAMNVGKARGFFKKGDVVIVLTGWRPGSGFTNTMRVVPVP

Molecular target: PTPN13, transiently overexpressed (UniProt Q12923)
Experiment: affinity purification with mass spectrometry; CoIP with anti-PTPN13 antibody and IgG control from nuclear extracts of PLC/PRF/5 cells with transient overexpression vector or control vector, silver staining, mass spectrometry; also LM3-OE vs empty and Huh7, SK-hep1 and SMMC-7721 knockdown vs control pairs

| Substance | binding |
| --- | --- |
| IGF2BP3, endogenous (from UniProt O00425 1-579) | binds |
| PKM, endogenous (from UniProt P14618 1-531) (enzyme) | binds |

These are yes or no findings as the source states them, for the method shown. Binding seen in cells or lysates may run through a third protein. A yes stands for co-enrichment or nearness to the bait. Other partners may have been found.
